Test results taken from patent US20100292231A1, “Indazole Compounds for Treating Inflammatory Disorders, Demyelinating Disorders and Cancers” (priority 2007, published 2010).
Like-named read-outs stand apart in the source and are kept apart here. The match of structure and compound is tentative.

Amino acid sequences for entries named in this document (tags omitted). A change or cut given only in a name is not applied to a line headed by its entry. Residues count along the entry.
UniProt P36888, 27-993 limits assumed: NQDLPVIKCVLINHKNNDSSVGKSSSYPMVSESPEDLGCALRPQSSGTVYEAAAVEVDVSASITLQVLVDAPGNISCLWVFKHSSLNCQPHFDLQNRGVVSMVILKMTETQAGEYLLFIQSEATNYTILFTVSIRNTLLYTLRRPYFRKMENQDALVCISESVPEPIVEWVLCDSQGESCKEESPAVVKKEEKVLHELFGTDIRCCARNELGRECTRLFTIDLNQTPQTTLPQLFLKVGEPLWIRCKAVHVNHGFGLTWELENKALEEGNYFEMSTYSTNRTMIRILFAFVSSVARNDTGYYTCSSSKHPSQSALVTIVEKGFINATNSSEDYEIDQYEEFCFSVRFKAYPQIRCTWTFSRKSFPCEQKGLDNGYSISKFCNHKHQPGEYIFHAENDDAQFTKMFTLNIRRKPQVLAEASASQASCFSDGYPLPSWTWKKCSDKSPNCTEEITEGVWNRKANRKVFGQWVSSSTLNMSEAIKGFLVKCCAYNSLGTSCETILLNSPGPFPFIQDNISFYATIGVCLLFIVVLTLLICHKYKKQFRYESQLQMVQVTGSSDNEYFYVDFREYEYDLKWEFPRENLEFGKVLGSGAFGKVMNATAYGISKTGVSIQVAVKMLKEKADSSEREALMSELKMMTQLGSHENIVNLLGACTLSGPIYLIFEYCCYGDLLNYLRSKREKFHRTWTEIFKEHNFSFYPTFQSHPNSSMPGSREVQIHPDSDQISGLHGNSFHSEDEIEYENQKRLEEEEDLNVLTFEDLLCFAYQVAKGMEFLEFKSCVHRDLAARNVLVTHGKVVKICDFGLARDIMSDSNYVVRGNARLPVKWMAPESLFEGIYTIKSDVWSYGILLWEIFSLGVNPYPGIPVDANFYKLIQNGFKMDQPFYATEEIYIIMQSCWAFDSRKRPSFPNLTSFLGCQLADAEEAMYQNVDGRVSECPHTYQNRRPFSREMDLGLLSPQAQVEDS
UniProt P36888, 27-993 D835Y limits assumed: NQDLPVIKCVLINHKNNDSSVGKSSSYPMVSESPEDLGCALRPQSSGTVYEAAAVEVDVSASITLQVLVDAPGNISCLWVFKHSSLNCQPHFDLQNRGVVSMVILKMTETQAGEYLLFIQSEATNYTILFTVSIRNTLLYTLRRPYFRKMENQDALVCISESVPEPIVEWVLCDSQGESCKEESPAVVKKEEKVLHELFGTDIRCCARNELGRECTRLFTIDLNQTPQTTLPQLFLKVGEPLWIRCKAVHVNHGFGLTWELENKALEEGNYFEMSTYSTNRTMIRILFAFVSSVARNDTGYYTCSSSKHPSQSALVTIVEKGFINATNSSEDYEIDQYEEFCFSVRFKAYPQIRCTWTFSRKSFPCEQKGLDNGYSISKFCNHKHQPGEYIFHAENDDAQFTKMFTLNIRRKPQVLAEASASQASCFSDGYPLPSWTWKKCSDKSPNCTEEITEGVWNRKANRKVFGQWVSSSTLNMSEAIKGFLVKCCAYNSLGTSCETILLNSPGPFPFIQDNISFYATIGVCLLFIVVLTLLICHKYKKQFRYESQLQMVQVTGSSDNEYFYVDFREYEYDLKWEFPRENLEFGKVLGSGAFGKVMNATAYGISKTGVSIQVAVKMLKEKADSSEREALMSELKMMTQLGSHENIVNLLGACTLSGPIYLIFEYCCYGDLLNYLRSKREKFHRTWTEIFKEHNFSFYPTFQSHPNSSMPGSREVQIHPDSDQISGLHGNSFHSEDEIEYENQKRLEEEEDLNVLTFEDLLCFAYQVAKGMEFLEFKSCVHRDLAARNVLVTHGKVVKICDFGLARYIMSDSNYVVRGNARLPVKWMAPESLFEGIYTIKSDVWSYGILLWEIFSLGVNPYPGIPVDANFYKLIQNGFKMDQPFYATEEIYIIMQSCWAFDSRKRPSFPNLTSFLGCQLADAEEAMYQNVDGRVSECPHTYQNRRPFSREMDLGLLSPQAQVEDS
UniProt P07333, 20-972 limits assumed: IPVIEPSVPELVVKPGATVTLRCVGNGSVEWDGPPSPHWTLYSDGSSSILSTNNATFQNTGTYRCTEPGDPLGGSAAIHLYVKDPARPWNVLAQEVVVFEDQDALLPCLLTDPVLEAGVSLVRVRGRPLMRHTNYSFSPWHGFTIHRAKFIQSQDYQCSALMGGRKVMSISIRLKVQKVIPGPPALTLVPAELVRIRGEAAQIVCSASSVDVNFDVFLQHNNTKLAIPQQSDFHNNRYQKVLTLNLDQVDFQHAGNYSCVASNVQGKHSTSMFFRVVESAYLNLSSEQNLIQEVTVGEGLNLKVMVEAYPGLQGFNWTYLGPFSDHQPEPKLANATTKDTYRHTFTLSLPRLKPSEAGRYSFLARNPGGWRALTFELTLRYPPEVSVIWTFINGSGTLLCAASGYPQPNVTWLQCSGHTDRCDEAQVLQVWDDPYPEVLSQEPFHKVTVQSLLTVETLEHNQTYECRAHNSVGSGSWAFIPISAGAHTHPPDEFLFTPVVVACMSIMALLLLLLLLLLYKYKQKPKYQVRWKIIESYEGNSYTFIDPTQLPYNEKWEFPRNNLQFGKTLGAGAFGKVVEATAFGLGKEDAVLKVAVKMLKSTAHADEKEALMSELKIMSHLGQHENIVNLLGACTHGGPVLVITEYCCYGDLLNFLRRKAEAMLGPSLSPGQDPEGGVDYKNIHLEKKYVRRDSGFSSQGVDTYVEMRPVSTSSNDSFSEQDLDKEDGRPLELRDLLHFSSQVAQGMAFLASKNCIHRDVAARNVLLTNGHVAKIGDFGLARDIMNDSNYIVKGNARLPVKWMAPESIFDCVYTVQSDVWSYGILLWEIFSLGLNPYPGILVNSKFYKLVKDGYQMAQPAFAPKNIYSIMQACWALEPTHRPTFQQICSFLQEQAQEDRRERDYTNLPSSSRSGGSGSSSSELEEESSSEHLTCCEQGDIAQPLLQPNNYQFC
UniProt Q9H1R3, whole entry: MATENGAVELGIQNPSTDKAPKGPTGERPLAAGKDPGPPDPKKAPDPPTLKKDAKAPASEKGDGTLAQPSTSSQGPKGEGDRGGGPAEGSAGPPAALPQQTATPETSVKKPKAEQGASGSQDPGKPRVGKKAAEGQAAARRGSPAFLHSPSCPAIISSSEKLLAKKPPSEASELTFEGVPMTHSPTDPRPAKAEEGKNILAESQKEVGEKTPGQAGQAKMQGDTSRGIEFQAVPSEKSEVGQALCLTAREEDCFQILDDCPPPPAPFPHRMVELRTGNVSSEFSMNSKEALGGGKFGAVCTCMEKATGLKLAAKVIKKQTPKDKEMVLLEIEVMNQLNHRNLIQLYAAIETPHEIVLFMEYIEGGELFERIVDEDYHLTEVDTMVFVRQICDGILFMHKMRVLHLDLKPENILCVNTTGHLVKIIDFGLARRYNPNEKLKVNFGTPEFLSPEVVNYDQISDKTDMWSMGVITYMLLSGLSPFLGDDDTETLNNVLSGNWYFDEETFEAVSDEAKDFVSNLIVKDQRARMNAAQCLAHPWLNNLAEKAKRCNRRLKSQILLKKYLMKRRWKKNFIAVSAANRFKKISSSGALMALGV

Legend:
[1] = biological target: T1, FLT3 (Homo sapiens, UniProt P36888); assay: SelectScreen FLT3 kinase dose response assay; type: biochemical; conditions: ATP 100 micromolar
[2] = system: MdaMb231 cells; assay: in vitro scratch (cell migration) assay; type: cell-based; conditions: Table 5 summary; concentration inhibiting migration
Protocol: Compounds of Table 5 were tested in comparison with Symadex and Sutent™ (sunitinib) for their ability to inhibit the migration of MdaMb231 cells. The in vitro scratch assay is used to determine the ability of cancer cells to migrate into and close an open wound; such migration is considered to have a role in metastasis of tumor cells.
Cells were plated in gelatin-coated 6-well plates and grown until a confluent monolayer was formed. When confluent, a straight scratch was made with a p200 pipette tip, cells were washed and compounds were added at concentrations of 1 μM, 2.5 μM, 5 μM, 10 μM and 20 μM. Images were taken at specific reference points at 0, 24 and 48 hours with Zeiss Axiovert 40 CFL microscope and Axiocam MRc5 camera and the ability of the cells to move in and close the wound was measured.
The data is presented in FIG. 1, which is a bar plot of percent cell migration into the “wound” in each sample (measured with respect to the control) and FIG. 2, which is a plot of percent wound confluence as a function of time (measured with respect to the control).

[3] = biological target: CSF-1R (Homo sapiens, UniProt P07333); assay: Kinase EC50 (10 pt curve or estimate, ATP Kmapp); type: biochemical; conditions: read-out: EC50 CSF-1R; from 10 pt curve or estimate based on 1 μm inhibition assay at ATP Kmapp
[4] = biological target: T1, FLT3; assay: Kinase EC50 (10 pt curve or estimate, ATP Kmapp); type: biochemical; conditions: read-out: EC50 Flt3; from 10 pt curve or estimate based on 1 μm inhibition assay at ATP Kmapp
[5] = biological target: FLT3 D835Y (Homo sapiens, UniProt P36888, D835Y); assay: Kinase EC50 (10 pt curve or estimate, ATP Kmapp); type: biochemical; conditions: read-out: EC50 Flt3-D835Y; from 10 pt curve or estimate based on 1 μm inhibition assay at ATP Kmapp
[6] = biological target: MLCK (Homo sapiens, UniProt Q9H1R3); assay: Kinase EC50 (10 pt curve or estimate, ATP Kmapp); type: biochemical; conditions: read-out: EC50 MLCK; from 10 pt curve or estimate based on 1 μm inhibition assay at ATP Kmapp
[7] = system: MV4-11 (leukemia) cell line; assay: sulforhodamine B (SRB) cytotoxicity assay
[8] = system: MdaMb231 (breast cancer) cell line; assay: sulforhodamine B (SRB) cytotoxicity assay
[9] = system: PC-3 (prostate cancer) cell line; assay: sulforhodamine B (SRB) cytotoxicity assay; conditions: read-out: IC50 Measured Against PC-3 Cell Line; 100 μM highest concentration, diluted 1:5; 3 day incubation
[10] = system: U266B1 (multiple myeloma) cell line; assay: sulforhodamine B (SRB) cytotoxicity assay; conditions: read-out: IC50 Measured Against U266B1 Cell Line; 100 μM highest concentration, diluted 1:5; 3 day incubation
[11] = system: MdaMb231 cells; assay: BrdU cell proliferation assay

Q: CN(C)CCCCNc1ccc2ncn3c4ccc5[nH]ncc5c4c(=O)c1c23 was tested. Which “FLT3 Inhibition E1000 (percent inhibition at 1000 nMolar)” value ([1]; 1000 nMolar compound) did it give?
A: The value was 100%.

Q: What about the EC50 ([1]; read-out: FLT3 Inhibition EC50, dose response, 4 parameter Hill equation) of the same compound?
A: Its EC50 is 2 nM.

Q: And the Migration [2]?
A: Its Migration is 2.5 μm.

Q: What about the EC50 [3] of the same compound?
A: The EC50 was 153 nM.

Q: What about the EC50 [4] of the same compound?
A: The EC50 was 5 nM.

Q: What about the EC50 [5] of the same compound?
A: The EC50 was 7 nM.

Q: What about the EC50 [6] of the same compound?
A: Its EC50 is 18 nM.

Q: And the IC50 ([7]; read-out: IC50 Measured Against MV4-11 Cell Line, 100 μM highest concentration, diluted 1:5, 3 day incubation)?
A: The IC50 was under 1 nM.

Q: And the IC50 ([7]; read-out: IC50 SRB assay MV4-11, Table 5 summary)?
A: Its IC50 is under 1 nM.

Q: What about the IC50 ([8]; read-out: IC50 Measured Against MdaMb231 Cell Line, 100 μM highest concentration, diluted 1:5 (two series), 3 day incubation) of the same compound?
A: The IC50 was 5200 nM.

Q: What about the IC50 ([8]; read-out: IC50 SRB assay Mda MB-231, Table 5 summary) of the same compound?
A: Its IC50 is 5200 nM.

Q: And the IC50 [9]?
A: Its IC50 is 3280 nM.

Q: What about the IC50 [10] of the same compound?
A: Its IC50 is 12400 nM.

Q: And the “concentration at which cell proliferation was inhibited (BrdU)” value ([11]; MdaMb231 cells, 24 hour treatment)?
A: The value was 20 µM.

Q: What about the “BrdU (Inhibition of cell proliferation)” value ([11]; Table 5 summary, concentration inhibiting proliferation) of the same compound?
A: The value was 10 μm.
